The supplement of paper PMC12823440, “Inhibitors supercharge kinase turnover through native proteolytic circuits” (Nature, 2025)
Counter-ions that a name gives are not always drawn. This is one part of the list. The calls rarely recur for the same compound in another form.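 Kinases were expressed as nanoluciferase fusions in K562 cells and luminescence was read every 4 h between 2 and 18 h as percent of control, DMSO set to 100% and a positive control to 0%. A time point counts as decreased when the signal drops significantly (2 sigma). The hit call is the authors' own, does not follow from the count of time points alone, and its rule is not shown.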

Chains of the proteins cited; added tags and fusions are not shown.
UniProt Q01974, whole entry: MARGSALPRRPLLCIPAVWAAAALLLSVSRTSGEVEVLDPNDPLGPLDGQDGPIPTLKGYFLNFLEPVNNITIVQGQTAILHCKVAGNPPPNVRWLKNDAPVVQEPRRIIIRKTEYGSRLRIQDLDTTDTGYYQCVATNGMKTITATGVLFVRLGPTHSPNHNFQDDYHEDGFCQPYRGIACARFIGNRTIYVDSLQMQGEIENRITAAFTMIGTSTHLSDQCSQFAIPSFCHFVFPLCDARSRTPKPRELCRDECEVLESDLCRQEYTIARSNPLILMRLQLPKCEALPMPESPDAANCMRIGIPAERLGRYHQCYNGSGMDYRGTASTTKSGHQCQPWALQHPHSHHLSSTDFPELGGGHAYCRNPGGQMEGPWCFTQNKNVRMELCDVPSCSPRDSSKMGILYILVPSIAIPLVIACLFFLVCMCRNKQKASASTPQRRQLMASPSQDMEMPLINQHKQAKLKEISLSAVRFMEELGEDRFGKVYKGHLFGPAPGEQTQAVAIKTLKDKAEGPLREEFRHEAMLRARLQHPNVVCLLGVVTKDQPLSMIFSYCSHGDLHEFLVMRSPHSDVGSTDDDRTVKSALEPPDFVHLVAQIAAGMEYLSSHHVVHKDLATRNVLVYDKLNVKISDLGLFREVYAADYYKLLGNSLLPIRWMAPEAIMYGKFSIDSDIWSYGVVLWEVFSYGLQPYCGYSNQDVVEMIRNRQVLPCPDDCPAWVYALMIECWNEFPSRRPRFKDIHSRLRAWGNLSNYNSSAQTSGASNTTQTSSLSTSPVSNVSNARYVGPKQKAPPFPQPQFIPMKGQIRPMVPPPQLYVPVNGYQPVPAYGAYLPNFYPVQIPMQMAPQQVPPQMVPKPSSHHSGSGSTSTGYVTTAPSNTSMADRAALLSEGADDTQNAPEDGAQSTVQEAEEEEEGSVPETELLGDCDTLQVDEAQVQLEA

Biological target: RIPK2 (UniProt O43353)
Assay: number of time points (of 5) at which kinase-Nluc abundance scored as decreased, DMSO-normalised (count); higher = more persistent destabilization
Conditions: K562; 2-18 h

Row | Structure (SMILES) | number of time points
1 | O=c1cc(-c2ccc(O[C@@H]3O[C@H](CO)[C@@H](O)[C@H](O)[C@H]3O)cc2)oc2cc(O)c([C@@H]3O[C@H](CO)[C@@H](O)[C@H](O)[C@H]3O[C@@H]3OC[C@H](O)[C@H](O)[C@H]3O)c(O)c12 [Vaccarin] (10 µM) | 0
2 | Nc1ccc(Sc2nc3ccccc3s2)c(Cl)c1 [KRAS inhibitor-9] (10 µM) | 0
3 | COc1ccc2cc1Oc1ccc(cc1)C[C@H]1c3cc(c(OC)cc3CCN1C)Oc1c(O)c(OC)cc3c1[C@H](C2)N(C)CC3 [Fangchinoline] (2.5 µM) | 0
4 | Nc1nccc(Oc2ccc3c(C(=O)Nc4cccc(C(F)(F)F)c4)cccc3c2)n1 (10 µM) | 0
5 | CN1C(=O)N[C@@H](Cc2c[nH]c3c(Cl)cccc23)C1=O [Necrostatin 2 (S enantiomer)] (10 µM) | 0
6 | Cc1ncc(-c2cc(F)c(O)c(F)c2)cc1-c1cc(F)c(O)c(F)c1 (10 µM) | 0
7 | N=C(NC(=N)N1CCCC1)Nc1ccc(OC(F)(F)F)cc1 (10 µM) | 0

In another format: entries from further up
Row,Structure (SMILES),number of time points
4,Nc1nccc(Oc2ccc3c(C(=O)Nc4cccc(C(F)(F)F)c4)cccc3c2)n1 (10 µM),0
5,CN1C(=O)N[C@@H](Cc2c[nH]c3c(Cl)cccc23)C1=O [Necrostatin 2 (S enantiomer)] (10 µM),0

Biological target: ROR2 (UniProt Q01974)
Assay: as above
Conditions: K562; 2-18 h

Row | Structure (SMILES) | number of time points
8 | COc1ccc(Br)c(C=O)c1O [6-Bromo-2-hydroxy-3-methoxybenzaldehyde] (10 µM) | 0
9 | O=C1C=CC2=C3c4cc(O)c(O)cc4CC3(O)COC2=C1O (stereo unspecified) [Hematein] (10 µM) | 0
10 | Cc1cccc(CC(=O)N2CCc3c2ccc(-c2cn(C)c4ncnc(N)c24)c3F)n1 (10 µM) | 0
11 | COCCOc1cnc2ccn([C@H](C)c3nnc4c(F)cc(-c5cnn(C)c5)cn34)c(=O)c2c1 (10 µM) | 0
12 | Cn1cc(C2=C(c3ccc(Cl)cc3Cl)C(=O)NC2=O)c2ccccc21 (10 µM) | 0
13 | COc1cc(N2CCC(N3CCN(C)CC3)CC2)ccc1Nc1ncnc(Nc2ccccc2S(=O)(=O)C(C)C)n1 (10 µM) | 0
14 | COc1c(Nc2ncc(Cl)c(N[C@H]3[C@@H](C(N)=O)[C@@H]4C=C[C@H]3C4)n2)ccc2c1CC[C@@H](N1CCOCC1)CC2 (10 µM) | 0
15 | Cc1ccc(NC(=O)N2CCN(c3nc(N)nc4sc(-c5cccnc5)nc34)CC2)cc1 [PI4KIII beta inhibitor 3] (10 µM) | 0
16 | CNc1cc2c(Nc3cccc(Br)c3)ncnc2cn1 (10 µM) | 0
17 | CC(C)n1c(CO)nc2c(F)cc(-c3nc(Nc4ccc(CN5CCNCC5)cn4)ncc3F)cc21 (10 µM) | 0
18 | CN1CCC(Nc2ccc(C(=O)Nc3cc(-c4ccc5c(c4)OCO5)[nH]n3)cc2)CC1 (10 µM) | 0
19 | CNC(=O)CN1CCC(Oc2cc3c(Nc4cccc(Cl)c4F)ncnc3cc2OC)CC1 [Sapitinib] (10 µM) | 0
20 | O=C(O)c1c[nH]c2cc(Cl)c(-c3ccc(C4(O)CCC4)cc3)cc12 (10 µM) | 0
21 | COc1cc(N2CCC(O)CC2)ccc1Nc1nc(Nc2ccccc2S(=O)(=O)C(C)C)c2[nH]cnc2n1 (10 µM) | 0
22 | O=c1c(O)c(-c2ccc(O)c(O)c2)oc2cc(O)c(O)c(O)c12 [Quercetagetin] (10 µM) | 0
23 | Cc1ncsc1-c1ccc(CNC(=O)[C@@H]2C[C@@H](O)CN2C(=O)[C@@H](NC(=O)COCCOc2ccc(-c3cc(Nc4ccc(OC(F)(F)F)cc4)ncn3)cc2)C(C)(C)C)cc1 (2.5 µM) | 0
24 | COc1cc(Nc2ccnc3ccc(Br)cc23)cc(OC)c1OC (2.5 µM) | 0
25 | Cc1ccc2c(NS(=O)(=O)c3ccccc3Cl)cccc2c1Oc1ncccc1-c1ccnc(N[C@H]2CCCNC2)n1 (2.5 µM) | 0
26 | CC(C)c1cc2c(c(O)c1O)[C@@]13CCCC(C)(C)[C@@H]1C[C@@H]2OC3=O [Carnosol] (2.5 µM) | 0
27 | Cc1nc2c(NCc3cccc(S(C)(=O)=O)c3)nccn2c1-c1ccc(O)c(F)c1 (10 µM) | 0
28 | CC(C)n1cnc2c(Nc3cccc(Cl)c3)nc(N[C@H]3CCCC[C@@H]3N)nc21 (2.5 µM) | 0
29 | O=c1cc(N2CCOCC2)oc2c(-c3cccc4c3sc3ccccc34)cccc12 (10 µM) | 0
30 | C[C@@H]1COC(Nc2ccc3ncnc(Nc4ccc(OCc5nccs5)c(Cl)c4)c3c2)=N1 [Varlitinib] (10 µM) | 0
31 | Cc1cncc2cccc(S(=O)(=O)N3CCCNC[C@@H]3C)c12 [H-1152 (dihydrochloride)] (10 µM) | 0
